PubChem BioAssay AID1053208 – Peter MacCallum Cancer Centre – 2014
Aim: 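Find knock-downs that sensitise mouse osteosarcoma cells to doxorubicin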 (primary screen). System: mouse osteosarcoma cells, early-passage culture from an engineered mouse model of fibroblastic bone tumour. Reagent: siRNA pool against mouse genes, 40 nM. Timing: about 120 h (48 h before drug, then 72 h with drug). Treatment: doxorubicin 100 nM for 72 h, roughly 30-40% inhibitory dose. Read-out: 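Luminescent ATP signal taken as viability with or without 100 nM doxorubicin for 72 h; mean of two wells set against non-targeting siRNA and turned into robust z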. Reading the numbers: viability z-score with doxorubicin: higher = more viable cells under doxorubicin; viability z-score without drug: higher = more viable cells with knock-down alone. Call rule: 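a pool counts as active when its viability z-score with doxorubicin is -2 or below and its z-score without drug lies between -2 and 2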.
In all, the deposit lists about 17,000 reagents; this is an unselected part. 788 of them (4.7%) count as active. 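Calls rest on z-score classes alone; an extra cut-off of viability at most 70% of control was not applied to them.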 A number with no mark means an inactive call. Not all columns of the deposit are shown.

target gene | PubChem SID | combined z-score class | viability z-score with doxorubicin | viability z-score without drug
Pgm5 | SID152318350 | low cell count with doxorubicin only (active) | -2.14 | -0.51
Nkapl | SID152302131 | no change with or without drug | -0.22 | 0.51
Hsbp1 | SID152264031 | no change with or without drug | 0.11 | 0.84
Vmn2r81 | SID152297695 | no change with or without drug | 0.34 | 0.67
Snrk | SID152312474 | high cell count with and without drug | 2.47 | 2.53
Ids | SID152332084 | low cell count with and without drug | -2.47 | -2.19
Slc30a4 | SID152341974 | no change with or without drug | -0.45 | -0.84
Aqp1 | SID152295908 | no change with or without drug | 0.56 | -0.17
Pate4 | SID152342933 | no change with or without drug | -0.45 | -1.52
Clca4a | SID152266176 | low cell count without drug only | -0.9 | -3.2
Nxf1 | SID152327349 | low cell count with and without drug | -7.19 | -7.93
2810021J22Rik | SID152288749 | no change with or without drug | -0.22 | -1.18
Nat8f5 | SID152283321 | no change with or without drug | -1.24 | -1.18
Sts | SID152314801 | no change with or without drug | 0.79 | -0.51
Lamc2 | SID152326204 | high cell count without drug only | 1.69 | 3.2
Or8j3c | SID152341007 | no change with or without drug | 1.35 | 1.18
Mepce | SID152316906 | no change with or without drug | -0.79 | 0.51
Pex11g | SID152315201 | low cell count with doxorubicin only (active) | -3.82 | -1.52
Gm10101 | SID152300539 | no change with or without drug | -0.45 | 0.17
Tfrc | SID152340526 | no change with or without drug | -1.35 | 0.17
Psg19 | SID152327687 | no change with or without drug | -0.45 | -1.01
Dync2i1 | SID152266008 | no change with or without drug | 0.79 | 0.84
Nr3c2 | SID152265023 | no change with or without drug | -0.9 | -0.17
4933409G03Rik | SID152283821 | no change with or without drug | 0.9 | 0.67
Gdpd5 | SID152330198 | no change with or without drug | 1.35 | -0.17
BC027092 | SID152338309 | no change with or without drug | 1.46 | 0.34
Batf | SID152315701 | no change with or without drug | 0 | 0.67
Asic3 | SID152298618 | no change with or without drug | 0.34 | 0.51
Mrgprb1 | SID152300845 | no change with or without drug | 1.12 | -0.51
Fn3k | SID152299404 | no change with or without drug | 0.11 | -0.84
Nlrp2 | SID152264291 | no change with or without drug | 1.24 | 0
Tmem63b | SID152289141 | no change with or without drug | 0.22 | 0.84
Zfp574 | SID152335040 | no change with or without drug | 0 | 0.17
Npm1 | SID152272848 | high cell count with doxorubicin only | 2.47 | 0.84
Ralyl | SID152334273 | high cell count with and without drug | 2.02 | 2.36
Tm4sf4 | SID152306791 | no change with or without drug | -0.9 | -0.51
Ercc2 | SID152282842 | no change with or without drug | -0.11 | -1.01
Mbl2 | SID152313785 | high cell count with doxorubicin only | 2.02 | 0.84
Ccl1 | SID152278156 | no change with or without drug | -0.45 | 0.84
Rad54l2 | SID152335875 | no change with or without drug | -0.67 | -0.84
Pdss1 | SID152292953 | no change with or without drug | 1.57 | 0.51

Part of the list above, reduced to “viability z-score with doxorubicin”:
4933409G03Rik [SID152283821]: 0.9
Gdpd5 [SID152330198]: 1.35
BC027092 [SID152338309]: 1.46
Batf [SID152315701]: 0
Asic3 [SID152298618]: 0.34
Mrgprb1 [SID152300845]: 1.12
Fn3k [SID152299404]: 0.11

Next records follow:
target gene | PubChem SID | combined z-score class | viability z-score with doxorubicin | viability z-score without drug
Pdhb | SID152312111 | no change with or without drug | 0.34 | 0.84
Fcamr | SID152331607 | no change with or without drug | -0.67 | 1.18
Lrrc4c | SID152284950 | no change with or without drug | 0.45 | 0.67
Fzd10 | SID152304544 | no change with or without drug | -0.56 | 0.34
Fdxr | SID152304615 | no change with or without drug | -0.9 | 0.51
Gfra2 | SID152271732 | no change with or without drug | -1.12 | -1.18
Epop | SID152315826 | no change with or without drug | 0.45 | 0.51
Vezt | SID152313848 | no change with or without drug | 0.11 | 0.67
Wdr27 | SID152268449 | no change with or without drug | -1.8 | 1.85
Pcdhga3 | SID152298487 | no change with or without drug | -0.67 | -0.84
Fam107a | SID152330667 | no change with or without drug | 0.22 | 0.17
Styxl1 | SID152304462 | no change with or without drug | 0 | 0.17
Sfxn2 | SID152273514 | low cell count without drug only | -1.24 | -2.87
Nr1h2 | SID152327020 | no change with or without drug | 0 | -0.17
Fbxo7 | SID152287431 | no change with or without drug | -0.22 | 0.84
Ccdc50 | SID152285333 | no change with or without drug | 0.22 | 0.17
Slco1a5 | SID152262125 | no change with or without drug | 0.9 | -0.17
Hmox2 | SID152343002 | no change with or without drug | -1.24 | -0.84
Msln | SID152274312 | no change with or without drug | -0.11 | -0.34
Gprc5a | SID152316016 | no change with or without drug | 0.34 | 0.51
Lsm14b | SID152339579 | no change with or without drug | 1.57 | 0.84
Fcgr4 | SID152264568 | no change with or without drug | -0.45 | 0.51
